Measurements reported in the supplement of paper PMC10849652.
The other results are listed elsewhere or left out.

Chains of the proteins cited; added tags and fusions are not shown. Lines headed by an entry give the natural chain unless they say otherwise; changes in a name come on top.
UniProt Q3KRA6: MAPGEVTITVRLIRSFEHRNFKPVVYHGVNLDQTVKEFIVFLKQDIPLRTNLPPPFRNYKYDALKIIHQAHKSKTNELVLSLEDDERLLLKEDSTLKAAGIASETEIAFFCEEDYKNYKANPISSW
UniProt P05937: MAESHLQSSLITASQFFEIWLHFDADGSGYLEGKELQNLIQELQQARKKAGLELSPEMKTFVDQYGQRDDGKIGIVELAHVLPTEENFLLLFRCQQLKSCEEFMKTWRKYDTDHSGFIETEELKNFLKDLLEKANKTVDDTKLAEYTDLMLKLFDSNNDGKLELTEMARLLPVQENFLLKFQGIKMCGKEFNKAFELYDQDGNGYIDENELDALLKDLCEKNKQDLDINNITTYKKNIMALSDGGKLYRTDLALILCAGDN
UniProt Q9BV19: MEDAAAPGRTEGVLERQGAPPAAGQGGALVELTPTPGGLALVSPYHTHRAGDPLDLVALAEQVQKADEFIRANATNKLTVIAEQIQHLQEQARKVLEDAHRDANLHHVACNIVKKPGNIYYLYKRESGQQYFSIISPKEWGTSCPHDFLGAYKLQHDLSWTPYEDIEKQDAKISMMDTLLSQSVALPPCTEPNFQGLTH
UniProt Q96EU7: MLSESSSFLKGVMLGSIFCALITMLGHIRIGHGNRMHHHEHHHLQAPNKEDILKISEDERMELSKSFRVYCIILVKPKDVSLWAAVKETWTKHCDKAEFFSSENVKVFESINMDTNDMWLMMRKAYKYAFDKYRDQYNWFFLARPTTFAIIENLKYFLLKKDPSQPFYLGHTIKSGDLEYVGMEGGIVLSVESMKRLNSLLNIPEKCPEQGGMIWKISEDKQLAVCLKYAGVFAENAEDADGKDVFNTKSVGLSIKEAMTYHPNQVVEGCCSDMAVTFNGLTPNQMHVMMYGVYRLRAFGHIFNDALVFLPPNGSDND
UniProt Q5T6V5: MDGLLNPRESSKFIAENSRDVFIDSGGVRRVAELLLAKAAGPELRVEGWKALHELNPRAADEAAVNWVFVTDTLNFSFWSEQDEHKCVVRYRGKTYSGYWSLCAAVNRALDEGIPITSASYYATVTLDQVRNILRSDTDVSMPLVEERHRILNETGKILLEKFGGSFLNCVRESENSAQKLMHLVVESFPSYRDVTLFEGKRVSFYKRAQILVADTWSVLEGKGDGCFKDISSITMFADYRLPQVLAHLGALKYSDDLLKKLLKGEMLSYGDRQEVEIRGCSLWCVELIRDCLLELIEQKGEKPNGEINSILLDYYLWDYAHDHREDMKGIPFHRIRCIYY
UniProt Q32NC0: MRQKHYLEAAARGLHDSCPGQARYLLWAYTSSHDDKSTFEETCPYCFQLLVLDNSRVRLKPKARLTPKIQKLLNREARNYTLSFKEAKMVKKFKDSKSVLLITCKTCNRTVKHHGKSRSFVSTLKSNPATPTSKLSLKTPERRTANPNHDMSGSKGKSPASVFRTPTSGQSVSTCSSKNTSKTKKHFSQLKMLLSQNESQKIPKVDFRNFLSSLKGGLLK
UniProt O43683: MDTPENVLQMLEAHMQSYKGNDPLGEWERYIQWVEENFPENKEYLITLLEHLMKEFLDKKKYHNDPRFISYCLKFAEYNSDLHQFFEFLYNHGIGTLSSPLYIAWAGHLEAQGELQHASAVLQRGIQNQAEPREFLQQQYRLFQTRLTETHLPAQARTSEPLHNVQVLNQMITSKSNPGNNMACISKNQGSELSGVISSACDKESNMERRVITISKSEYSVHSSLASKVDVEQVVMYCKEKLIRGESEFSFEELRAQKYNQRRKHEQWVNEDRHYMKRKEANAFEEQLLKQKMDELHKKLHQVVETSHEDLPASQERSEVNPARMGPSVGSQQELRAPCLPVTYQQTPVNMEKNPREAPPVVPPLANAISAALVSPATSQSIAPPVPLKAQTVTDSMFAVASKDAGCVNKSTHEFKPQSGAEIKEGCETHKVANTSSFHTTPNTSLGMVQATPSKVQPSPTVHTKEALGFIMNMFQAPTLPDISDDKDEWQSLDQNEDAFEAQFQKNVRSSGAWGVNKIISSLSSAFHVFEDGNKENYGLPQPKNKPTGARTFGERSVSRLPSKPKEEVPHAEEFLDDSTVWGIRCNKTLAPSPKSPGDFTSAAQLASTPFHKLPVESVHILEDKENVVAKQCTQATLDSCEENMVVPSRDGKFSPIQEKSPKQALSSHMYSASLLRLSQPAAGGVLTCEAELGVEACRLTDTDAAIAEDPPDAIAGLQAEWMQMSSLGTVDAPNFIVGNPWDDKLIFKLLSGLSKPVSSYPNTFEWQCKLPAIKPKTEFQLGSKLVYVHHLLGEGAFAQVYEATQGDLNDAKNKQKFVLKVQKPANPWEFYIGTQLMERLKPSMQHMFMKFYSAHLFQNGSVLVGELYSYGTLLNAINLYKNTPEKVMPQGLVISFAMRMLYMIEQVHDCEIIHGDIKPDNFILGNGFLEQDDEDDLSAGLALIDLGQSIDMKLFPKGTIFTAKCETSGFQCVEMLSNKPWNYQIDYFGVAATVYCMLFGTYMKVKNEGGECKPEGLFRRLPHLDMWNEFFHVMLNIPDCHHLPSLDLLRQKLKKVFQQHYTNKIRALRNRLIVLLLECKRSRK
UniProt Q9H3J6: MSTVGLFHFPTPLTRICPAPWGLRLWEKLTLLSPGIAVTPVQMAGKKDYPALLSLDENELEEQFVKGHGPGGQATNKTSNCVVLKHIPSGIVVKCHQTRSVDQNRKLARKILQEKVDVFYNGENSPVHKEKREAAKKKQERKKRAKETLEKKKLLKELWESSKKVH
UniProt Q8IXQ3: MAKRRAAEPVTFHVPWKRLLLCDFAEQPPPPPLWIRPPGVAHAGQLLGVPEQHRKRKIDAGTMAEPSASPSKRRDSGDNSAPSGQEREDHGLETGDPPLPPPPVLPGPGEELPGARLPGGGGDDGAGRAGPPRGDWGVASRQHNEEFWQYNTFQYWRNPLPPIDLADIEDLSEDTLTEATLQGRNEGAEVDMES
UniProt Q9Y297: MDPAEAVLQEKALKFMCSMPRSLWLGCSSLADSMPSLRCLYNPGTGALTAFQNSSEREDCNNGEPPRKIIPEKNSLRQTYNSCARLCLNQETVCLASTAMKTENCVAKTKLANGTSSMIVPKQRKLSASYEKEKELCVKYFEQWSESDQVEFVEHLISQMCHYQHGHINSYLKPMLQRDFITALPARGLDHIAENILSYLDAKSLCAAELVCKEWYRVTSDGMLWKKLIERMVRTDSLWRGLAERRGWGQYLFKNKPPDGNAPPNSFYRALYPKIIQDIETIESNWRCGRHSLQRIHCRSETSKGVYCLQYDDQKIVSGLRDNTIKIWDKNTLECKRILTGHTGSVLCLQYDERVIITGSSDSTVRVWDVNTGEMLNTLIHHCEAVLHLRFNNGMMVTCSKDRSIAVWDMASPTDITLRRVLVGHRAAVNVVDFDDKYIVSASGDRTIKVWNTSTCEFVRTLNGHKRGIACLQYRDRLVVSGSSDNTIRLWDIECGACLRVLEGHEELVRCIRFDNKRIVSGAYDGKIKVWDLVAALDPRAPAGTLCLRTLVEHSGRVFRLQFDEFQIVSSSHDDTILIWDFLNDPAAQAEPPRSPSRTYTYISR
UniProt O43684, whole entry, looked up: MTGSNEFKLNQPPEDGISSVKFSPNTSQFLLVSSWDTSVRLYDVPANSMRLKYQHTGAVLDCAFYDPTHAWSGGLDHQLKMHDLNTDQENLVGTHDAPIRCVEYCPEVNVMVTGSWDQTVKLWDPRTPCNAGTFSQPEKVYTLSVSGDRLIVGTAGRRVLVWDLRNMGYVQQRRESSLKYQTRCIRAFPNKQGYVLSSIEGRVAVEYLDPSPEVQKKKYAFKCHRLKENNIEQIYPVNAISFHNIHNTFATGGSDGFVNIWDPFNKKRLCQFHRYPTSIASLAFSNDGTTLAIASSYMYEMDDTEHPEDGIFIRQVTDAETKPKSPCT
UniProt O00478: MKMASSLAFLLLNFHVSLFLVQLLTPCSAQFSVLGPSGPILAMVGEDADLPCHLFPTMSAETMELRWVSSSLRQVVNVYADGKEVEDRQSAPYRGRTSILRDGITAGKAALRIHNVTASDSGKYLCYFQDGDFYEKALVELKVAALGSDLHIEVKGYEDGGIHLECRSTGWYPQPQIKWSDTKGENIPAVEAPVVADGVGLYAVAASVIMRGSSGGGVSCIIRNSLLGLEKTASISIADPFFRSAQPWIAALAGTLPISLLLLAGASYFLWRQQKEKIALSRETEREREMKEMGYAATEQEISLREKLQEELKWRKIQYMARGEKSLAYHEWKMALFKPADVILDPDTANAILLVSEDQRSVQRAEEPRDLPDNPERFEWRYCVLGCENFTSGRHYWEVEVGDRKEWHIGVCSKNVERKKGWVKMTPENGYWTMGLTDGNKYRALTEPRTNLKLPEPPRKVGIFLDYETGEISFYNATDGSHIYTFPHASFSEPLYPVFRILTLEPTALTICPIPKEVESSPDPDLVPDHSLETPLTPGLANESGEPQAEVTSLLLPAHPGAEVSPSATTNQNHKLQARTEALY
UniProt Q9BXL7: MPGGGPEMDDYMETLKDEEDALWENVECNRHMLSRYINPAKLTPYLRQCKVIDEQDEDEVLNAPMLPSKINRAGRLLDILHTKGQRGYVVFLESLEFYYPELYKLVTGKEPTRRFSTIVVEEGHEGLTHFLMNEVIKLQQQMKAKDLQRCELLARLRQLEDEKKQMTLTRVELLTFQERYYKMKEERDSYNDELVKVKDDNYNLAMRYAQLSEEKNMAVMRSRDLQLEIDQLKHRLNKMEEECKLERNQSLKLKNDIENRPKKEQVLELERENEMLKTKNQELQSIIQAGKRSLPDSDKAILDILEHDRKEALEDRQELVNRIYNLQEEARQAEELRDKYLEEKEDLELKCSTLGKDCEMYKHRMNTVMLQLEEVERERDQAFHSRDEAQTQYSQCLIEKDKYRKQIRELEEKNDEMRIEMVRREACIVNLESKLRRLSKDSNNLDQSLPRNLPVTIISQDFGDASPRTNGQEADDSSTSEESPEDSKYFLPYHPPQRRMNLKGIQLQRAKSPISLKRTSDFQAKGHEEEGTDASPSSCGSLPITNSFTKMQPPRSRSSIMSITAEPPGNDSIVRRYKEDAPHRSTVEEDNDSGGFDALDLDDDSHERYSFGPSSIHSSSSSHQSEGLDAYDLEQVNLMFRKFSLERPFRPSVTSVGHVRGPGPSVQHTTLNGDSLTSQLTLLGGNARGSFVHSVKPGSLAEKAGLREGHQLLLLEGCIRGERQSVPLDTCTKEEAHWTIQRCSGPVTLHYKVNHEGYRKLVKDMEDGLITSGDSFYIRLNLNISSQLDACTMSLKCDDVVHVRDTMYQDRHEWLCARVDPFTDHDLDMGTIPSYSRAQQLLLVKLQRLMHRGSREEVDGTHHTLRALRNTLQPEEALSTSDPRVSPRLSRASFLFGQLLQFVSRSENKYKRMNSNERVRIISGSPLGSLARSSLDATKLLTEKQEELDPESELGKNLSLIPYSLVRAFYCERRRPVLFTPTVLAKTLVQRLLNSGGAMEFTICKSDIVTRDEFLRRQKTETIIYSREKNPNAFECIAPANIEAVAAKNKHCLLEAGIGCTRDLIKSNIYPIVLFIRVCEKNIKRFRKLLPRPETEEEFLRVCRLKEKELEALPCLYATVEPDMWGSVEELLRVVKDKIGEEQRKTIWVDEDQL
UniProt Q9HAS0: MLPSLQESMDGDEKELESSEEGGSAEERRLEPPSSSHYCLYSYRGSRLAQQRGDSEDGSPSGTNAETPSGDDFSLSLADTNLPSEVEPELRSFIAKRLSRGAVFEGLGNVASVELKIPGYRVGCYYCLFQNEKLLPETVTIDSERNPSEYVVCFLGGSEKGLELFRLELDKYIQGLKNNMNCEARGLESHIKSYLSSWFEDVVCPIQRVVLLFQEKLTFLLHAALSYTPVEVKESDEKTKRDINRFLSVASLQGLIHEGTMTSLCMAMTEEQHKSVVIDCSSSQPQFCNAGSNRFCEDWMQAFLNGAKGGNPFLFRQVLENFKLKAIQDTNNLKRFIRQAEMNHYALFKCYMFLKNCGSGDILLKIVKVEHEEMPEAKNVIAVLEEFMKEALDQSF
UniProt Q9UFG5: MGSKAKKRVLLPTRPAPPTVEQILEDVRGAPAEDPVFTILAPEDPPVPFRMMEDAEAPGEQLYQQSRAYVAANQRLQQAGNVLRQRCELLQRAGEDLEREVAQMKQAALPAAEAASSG
UniProt Q9H9S4: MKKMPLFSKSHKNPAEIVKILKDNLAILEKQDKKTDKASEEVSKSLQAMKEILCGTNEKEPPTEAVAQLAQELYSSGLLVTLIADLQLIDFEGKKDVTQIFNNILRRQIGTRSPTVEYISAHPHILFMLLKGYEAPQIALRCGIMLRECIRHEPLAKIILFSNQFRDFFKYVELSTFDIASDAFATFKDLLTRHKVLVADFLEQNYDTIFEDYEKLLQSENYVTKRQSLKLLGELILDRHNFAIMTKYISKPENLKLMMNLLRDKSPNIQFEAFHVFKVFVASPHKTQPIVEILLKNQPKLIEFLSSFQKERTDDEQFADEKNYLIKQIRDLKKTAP
UniProt Q7Z7L8: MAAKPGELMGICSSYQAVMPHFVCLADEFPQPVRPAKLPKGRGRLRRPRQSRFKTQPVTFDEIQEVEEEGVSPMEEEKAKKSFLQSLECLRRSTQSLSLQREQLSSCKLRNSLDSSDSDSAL

Compound: C1=CC=C(C=C1)[C@H](COC2=CC3=C(C=C2)NC(=O)N3)NC(=O)C4=CC=CN(C4=O)CC5=CC(=C(C=C5)F)F
Assay: log2 fold change, soluble protein after heating vs DMSO (PISA); higher = thermal stabilisation; K562 lysate, 10 uM; active = over 0.2 and 3.5 SD of the protein, either way, in both replicates (recomputed)
How it was run: (§1)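 K562 pellets were dounce-homogenised in PBS pH 7.4 with 1 mM MgCl2, and the crude extract at 1 mg/mL protein was treated with 10 μM compound for 30 min. Aliquots were heated for 3 min across 48°C-58°C, pooled, and brought to 0.5% NP-40 at 4°C; soluble protein was the supernatant after 21,000xg for 90 min. Soluble protein was quantified by TMTpro 16plex LC-MS/MS with channel sums equalised, and reported as log2 fold change in thermal stability against DMSO controls, with values from duplicates.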

Question: CAPZA1 (UniProt P52907) was tested. Which log2 fold change did it give?
Answer: inactive: 0.042

Question: C6orf120 (UniProt Q7Z4R8) was tested. Which log2 fold change did it give?
Answer: inactive: -0.101

Question: CAMK2G isoform 8 (UniProt Q13555) was tested. Which log2 fold change did it give?
Answer: inactive: 0.048

Question: For C15orf41 (UniProt Q9Y2V0), which log2 fold change is on record?
Answer: inactive: 0.111

Question: CAB39 (UniProt Q9Y376) was tested. Which log2 fold change did it give?
Answer: inactive: -0.018

Question: With CAPRIN1 (UniProt Q14444) as the target, how does the log2 fold change read?
Answer: inactive: 0.026

Question: For C2orf76 (UniProt Q3KRA6), which log2 fold change is on record?
Answer: inactive: -0.033

Question: How did the log2 fold change turn out when C3orf38 (UniProt Q5JPI3) was run?
Answer: inactive: -0.054

Question: How did the log2 fold change turn out when CALB1 (UniProt P05937) was run?
Answer: inactive: -0.013

Question: How did the log2 fold change turn out when C1orf50 (UniProt Q9BV19) was run?
Answer: inactive: -0.031

Question: For C20orf27 isoform 2 (UniProt Q9GZN8), which log2 fold change is on record?
Answer: inactive: -0.016

Question: C1GALT1C1 (UniProt Q96EU7) was tested. Which log2 fold change did it give?
Answer: inactive: -0.063

Question: Which log2 fold change does the source give for CALCOCO2 isoform 4 (UniProt Q13137) here?
Answer: inactive: 0.021

Question: How did the log2 fold change turn out when CA13 (UniProt Q8N1Q1) was run?
Answer: inactive: -0.009

Question: Which log2 fold change does the source give for C2orf69 (UniProt Q8N8R5) here?
Answer: inactive: 0.017

Question: With C9orf64 (UniProt Q5T6V5) as the target, how does the log2 fold change read?
Answer: inactive: 0.022

Question: Which log2 fold change does the source give for C18orf21 (UniProt Q32NC0) here?
Answer: inactive: 0.085

Question: BUB1 (UniProt O43683) was tested. Which log2 fold change did it give?
Answer: inactive: -0.109

Question: How did the log2 fold change turn out when CAMK2B (UniProt Q13554) was run?
Answer: inactive: 0.036

Question: C12orf65 (UniProt Q9H3J6) was tested. Which log2 fold change did it give?
Answer: inactive: 0.04

Question: With C4A (UniProt P0C0L4) as the target, how does the log2 fold change read?
Answer: inactive: 0.01

Question: Which log2 fold change does the source give for C12orf73 (UniProt Q69YU5) here?
Answer: inactive: 0.129

Question: For BUD23 isoform 3 (UniProt O43709), which log2 fold change is on record?
Answer: inactive: 0.076

Question: For CALU isoform 4 (UniProt O43852), which log2 fold change is on record?
Answer: inactive: -0.045

Question: Which log2 fold change does the source give for CAPN1 (UniProt P07384) here?
Answer: inactive: 0.047

Question: With C9orf40 (UniProt Q8IXQ3) as the target, how does the log2 fold change read?
Answer: inactive: 0.055

Question: C18orf25 (UniProt Q96B23) was tested. Which log2 fold change did it give?
Answer: inactive: 0.013

Question: BTRC (UniProt Q9Y297) was tested. Which log2 fold change did it give?
Answer: inactive: 0.024

Question: How did the log2 fold change turn out when BUB3 (UniProt O43684) was run?
Answer: inactive: 0.012

Question: For CAP1 isoform 2 (UniProt Q01518), which log2 fold change is on record?
Answer: inactive: 0.058

Question: Which log2 fold change does the source give for BTN3A3 (UniProt O00478) here?
Answer: inactive: 0.094

Question: How did the log2 fold change turn out when CARD11 (UniProt Q9BXL7) was run?
Answer: inactive: 0.193

Question: C3 (UniProt P01024) was tested. Which log2 fold change did it give?
Answer: inactive: 0.013

Question: C11orf54 (UniProt Q9H0W9) was tested. Which log2 fold change did it give?
Answer: inactive: 0.015

Question: Which log2 fold change does the source give for C17orf75 (UniProt Q9HAS0) here?
Answer: inactive: -0.094

Question: With C19orf25 (UniProt Q9UFG5) as the target, how does the log2 fold change read?
Answer: inactive: 0.108

Question: Which log2 fold change does the source give for CAND1 (UniProt F5H6I6) here?
Answer: inactive: -0.015

Question: How did the log2 fold change turn out when CAB39L (UniProt Q9H9S4) was run?
Answer: inactive: 0.005

Question: C2CD2 (UniProt Q9Y426) was tested. Which log2 fold change did it give?
Answer: inactive: -0.07

Question: With C11orf96 (UniProt Q7Z7L8) as the target, how does the log2 fold change read?
Answer: inactive: 0.167

Compound: CC1=C(SC2=C1C(=N[C@H](C3=NN=C(N32)C)CC(=O)N)C4=CC=C(C=C4)Cl)C
Assay: as above
How it was run: as §1

Question: For CAPZA1 (UniProt P52907), which log2 fold change is on record?
Answer: inactive: 0.02

Question: Which log2 fold change does the source give for C6orf120 (UniProt Q7Z4R8) here?
Answer: inactive: -0.015

Question: For CAMK2G isoform 8 (UniProt Q13555), which log2 fold change is on record?
Answer: inactive: -0.063

Question: How did the log2 fold change turn out when C15orf41 (UniProt Q9Y2V0) was run?
Answer: inactive: -0.007

Question: How did the log2 fold change turn out when CAB39 (UniProt Q9Y376) was run?
Answer: inactive: -0.008

Question: For CAPRIN1 (UniProt Q14444), which log2 fold change is on record?
Answer: inactive: -0.016

Question: For C2orf76 (UniProt Q3KRA6), which log2 fold change is on record?
Answer: inactive: -0.054

Question: For C3orf38 (UniProt Q5JPI3), which log2 fold change is on record?
Answer: inactive: -0.019

Question: How did the log2 fold change turn out when CALB1 (UniProt P05937) was run?
Answer: inactive: -0.098

Question: Which log2 fold change does the source give for C1orf50 (UniProt Q9BV19) here?
Answer: inactive: 0.11

Question: Which log2 fold change does the source give for C20orf27 isoform 2 (UniProt Q9GZN8) here?
Answer: inactive: 0.035

Question: With C1GALT1C1 (UniProt Q96EU7) as the target, how does the log2 fold change read?
Answer: inactive: -0.012

Question: How did the log2 fold change turn out when CALCOCO2 isoform 4 (UniProt Q13137) was run?
Answer: inactive: 0.002

Question: For CA13 (UniProt Q8N1Q1), which log2 fold change is on record?
Answer: inactive: 0.04

Question: How did the log2 fold change turn out when C2orf69 (UniProt Q8N8R5) was run?
Answer: inactive: -0.024

Question: Which log2 fold change does the source give for C9orf64 (UniProt Q5T6V5) here?
Answer: inactive: -0.006

Question: C18orf21 (UniProt Q32NC0) was tested. Which log2 fold change did it give?
Answer: inactive: -0.03

Question: How did the log2 fold change turn out when BUB1 (UniProt O43683) was run?
Answer: inactive: 0.052

Question: Which log2 fold change does the source give for CAMK2B (UniProt Q13554) here?
Answer: inactive: -0.052

Question: For C12orf65 (UniProt Q9H3J6), which log2 fold change is on record?
Answer: inactive: 0.04

Question: How did the log2 fold change turn out when C4A (UniProt P0C0L4) was run?
Answer: inactive: -0.018

Question: For C12orf73 (UniProt Q69YU5), which log2 fold change is on record?
Answer: inactive: -0.103

Question: How did the log2 fold change turn out when BUD23 isoform 3 (UniProt O43709) was run?
Answer: inactive: 0.03

Question: For CALU isoform 4 (UniProt O43852), which log2 fold change is on record?
Answer: inactive: -0.003

Question: Which log2 fold change does the source give for CAPN1 (UniProt P07384) here?
Answer: inactive: 0.008

Question: How did the log2 fold change turn out when C9orf40 (UniProt Q8IXQ3) was run?
Answer: inactive: -0.16

Question: Which log2 fold change does the source give for C18orf25 (UniProt Q96B23) here?
Answer: inactive: -0.035

Question: Which log2 fold change does the source give for BTRC (UniProt Q9Y297) here?
Answer: inactive: -0.042

Question: How did the log2 fold change turn out when BUB3 (UniProt O43684) was run?
Answer: inactive: 0.047

Question: Which log2 fold change does the source give for CAP1 isoform 2 (UniProt Q01518) here?
Answer: inactive: 0.044

Question: How did the log2 fold change turn out when BTN3A3 (UniProt O00478) was run?
Answer: inactive: 0.166

Question: With CARD11 (UniProt Q9BXL7) as the target, how does the log2 fold change read?
Answer: inactive: 0.252

Question: For C3 (UniProt P01024), which log2 fold change is on record?
Answer: inactive: 0.054

Question: How did the log2 fold change turn out when C11orf54 (UniProt Q9H0W9) was run?
Answer: inactive: -0.016

Question: Which log2 fold change does the source give for C17orf75 (UniProt Q9HAS0) here?
Answer: inactive: 0.002

Question: With C19orf25 (UniProt Q9UFG5) as the target, how does the log2 fold change read?
Answer: inactive: 0.084

Question: CAND1 (UniProt F5H6I6) was tested. Which log2 fold change did it give?
Answer: inactive: 0.117

Question: With CAB39L (UniProt Q9H9S4) as the target, how does the log2 fold change read?
Answer: inactive: 0.004

Question: Which log2 fold change does the source give for C2CD2 (UniProt Q9Y426) here?
Answer: inactive: 0.157

Question: With C11orf96 (UniProt Q7Z7L8) as the target, how does the log2 fold change read?
Answer: inactive: -0.021
